Measured values published in US20110245473A1.
No constants are given. Whether binding was seen depends on the method and setting. Some entries that bind do so weakly or less than the wild type.

The chains behind the UniProt entries cited, without tags or fusion partners. Where a name states a change or a piece, a line headed by the entry shows the natural chain unless it says otherwise. Residues count along the entry.
UniProt P08887, residues 20-358: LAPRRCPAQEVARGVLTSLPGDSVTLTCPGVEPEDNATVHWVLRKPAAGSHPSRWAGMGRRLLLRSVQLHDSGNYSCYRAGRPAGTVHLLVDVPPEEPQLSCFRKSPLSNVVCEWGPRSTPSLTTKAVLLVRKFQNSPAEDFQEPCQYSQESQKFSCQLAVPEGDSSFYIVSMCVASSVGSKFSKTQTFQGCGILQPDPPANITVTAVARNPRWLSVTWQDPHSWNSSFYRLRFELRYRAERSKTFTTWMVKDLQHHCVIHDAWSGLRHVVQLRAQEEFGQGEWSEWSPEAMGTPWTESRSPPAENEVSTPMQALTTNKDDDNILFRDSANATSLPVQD
UniProt P55899: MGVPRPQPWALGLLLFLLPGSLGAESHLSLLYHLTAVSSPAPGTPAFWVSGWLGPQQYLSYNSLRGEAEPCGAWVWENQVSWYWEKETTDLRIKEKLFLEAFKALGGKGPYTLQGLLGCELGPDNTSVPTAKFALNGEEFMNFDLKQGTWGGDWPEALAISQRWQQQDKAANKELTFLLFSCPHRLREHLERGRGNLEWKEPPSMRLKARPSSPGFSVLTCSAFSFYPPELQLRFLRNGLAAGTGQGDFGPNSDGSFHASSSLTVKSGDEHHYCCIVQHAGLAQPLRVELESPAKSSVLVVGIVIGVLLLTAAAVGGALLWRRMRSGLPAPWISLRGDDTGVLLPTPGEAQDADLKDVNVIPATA

Experiments:
[1] = biological target: recombinant human IL-6R sR (R&D systems) (human) (UniProt P08887); assay: SPR (Biacore T100, 25 °C): antibody captured on Protein A, rhIL-6sR as analyte
[2] = biological target: soluble human FcRn (complex of FcRn and β2-microglobulin) (human) (UniProt P55899); assay: SPR (Biacore 3000), antibody captured, human FcRn as analyte, pH 6.0
[3] = biological target: recombinant human IL-6R sR (R&D systems) (human) (UniProt P08887); assay: SPR (Biacore T100), antibody captured on Protein A, rhIL-6sR as analyte, 25°C

Binder | binding [3] | also measured
RD-6 (antibody, V domains shown) VH: QVQLQESGPGLVRPSQTLSLTCTVSGYSITSDHAWSWVRQPPGRGLEWIGYISYSGITTYNPSLKSRVTMLRDTSKNQFSLRLSSVTAADTAVYYCARLLARATAMDYWGQGSLVTVSS VL: DIQMTQSPSSLSASVGDRVTITCRASQDISSYLNWYQQKPGKAPKLLIYYTSRLHSGVPSRFSGSGSGTDFTFTISSLQPEDIATYYCQQGNTLPYTFGQGTKVEIK | – | binding [1]: binds
anti-IL-31 receptor antibody H0L0 with M58 constant region (antibody) heavy: QVQLVQSGAEVKKPGASVKVSCKASGYTFTGYIMNWVRQAPGQGLEWMGLINPYNGGTSYNQKFKGRVTITADESTSTAYMELSSLRSEDTAVYYCARDGYDDGPYTMDYWGQGTLVTVSASTKGPSVFPLAPSSKSTSGGTAALGCLVKDYFPEPVTVSWNSGALTSGVHTFPAVLQSSGLYSLSSVVTVPSSNFGTQTYTCNVDHKPSNTKVDKTVERKSCVECPPCPAPPVAGPSVFLFPPKPKDTLMISRTPEVTCVVVDVSQEDPEVQFNWYVDGVEVHNAKTKPREEQFNSTFRVVSVLTVVHQDWLNGKEYKCKVSNKGLPAPIEKTISKTKGQPREPQVYTLPPSQEEMTKNQVSLTCLVKGFYPSDIAVEWESNGQPENNYKTTPPMLDSDGSFFLYSKLTVDKSRWQEGNVFSCSVMHEALHNHYTQKSLSLSP VL: DIQMTQSPSSLSASVGDRVTITCRTSENIYSFLAWYQQKPGKAPKLLIYNAKTLAKGVPSRFSGSGSGTDFTLTISSLQPEDFATYYCQHHYESPLTFGGGTKVEIK | – | binding [2]: binds
RDC-4 (antibody, V domains shown) VH: QVQLQESGPGLVRPSQTLSLTCTVSGYSITSDHAWSWVRQPPGRGLEWIGYISYSGITTYNPSLKSRVTMLRDTSKNQFSLRLSSVTAADTAVYYCARTLARATAMDYWGQGSLVTVSS VL: DIQMTQSPSSLSASVGDRVTITCRASQDISSYLNWYQQKPGKAPKLLIYYTSRLHSGVPSRFSGSGSGTDFTFTISSLQPEDIATYYCQQGNTLPYTFGQGTKVEIK | binds | –
RDC-7 (antibody, V domains shown) VH: QVQLQESGPGLVRPSQTLSLTCTVSGYSITSDHAWSWVRQPPGRGLEWIGYISYSGITTYNPSLKSRVTMLRDTSKNQFSLRLSSVTAADTAVYYCARTLARITAMDYWGQGSLVTVSS VL: DIQMTQSPSSLSASVGDRVTITCRASQDISSYLNWYQQKPGKAPKLLIYYTSRLHSGVPSRFSGSGSGTDFTFTISSLQPEDIATYYCQQGNTLPYTFGQGTKVEIK | binds | –
RDC-8 (antibody, V domains shown) VH: QVQLQESGPGLVRPSQTLSLTCTVSGYSITSDHAWSWVRQPPGRGLEWIGYISYSGITTYNPSLKSRVTMLRDTSKNQFSLRLSSVTAADTAVYYCARLLARITAMDYWGQGSLVTVSS VL: DIQMTQSPSSLSASVGDRVTITCRASQDISSYLNWYQQKPGKAPKLLIYYTSRLHSGVPSRFSGSGSGTDFTFTISSLQPEDIATYYCQQGNTLPYTFGQGTKVEIK | binds | –
